Here are results for 40 compounds from the supplement of paper PMC8256030.

“And” between values parts separate entries of the source, which are not always exact repeats. Equal values may be shown once. The list shows a part of the results. Single values are uncertain here, since repeats match poorly.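 HEK293T cells were given each compound shortly before transfection with a reporter in which red mCherry is followed by the SARS-CoV-2 frameshift element and then GFP in the −1 frame, so GFP appears only after frameshifting.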

For one test, the system named is SARS-CoV-2 -1 PRF reporter mCherry-FSE-GFP(-1). In words: mCherry (red) intensity as percent of control; higher = higher upstream reporter expression. The settings on record: 10 µM; 24 h; HEK293T.
Consider `NC(=O)NO` [hydroxycarbamide], for which the mCherry is 99.1%.
Same read-out and setting: the figure for `COc1ccc2cc([C@H](C)C(=O)O)ccc2c1` [naproxen] is 104%; for `O=C(O)c1cn(C2CC2)c2cc(N3CCNCC3)c(F)cc2c1=O` [ciprofloxacin] it is 103% and 86.4%.
On the same count and under the same terms, to `Nc1nc2c(ncn2COCCO)c(=O)[nH]1` [aciclovir] belongs 85.5%.
For `C/C(=N\O)C(C)NCC(C)(C)CNC(C)/C(C)=N/O` (stereo not given) [exametazime], the mCherry worked out at 97%.
Same read-out and setting: the figure for `CC1=C(C(=O)O)N2C(=O)[C@@H](NC(=O)[C@H](N)c3ccccc3)[C@H]2SC1` is 85.5%; for `Cc1cc(C2CCCCC2)n(O)c(=O)c1` [ciclopirox] it is 78.7% and 62.7%; for `CCCCN(CCCC)C(=O)CN1C[C@H](c2ccc3c(c2)OCO3)[C@@H](C(=O)O)[C@@H]1c1ccc(OC)cc1` [atrasentan] it is 67.7%.
Still for that read-out and setting: the figure for `O=C(CCCl)NCc1ccccc1` [beclamide] is 83.7%.
Still for that read-out and setting: the figure for `CC1=C(/C=C/C(C)=C/C=C/C(C)=C/C(=O)Nc2ccc(O)cc2)C(C)(C)CCC1` [Fenretinide] is 315%; for `C[C@H](CCC(=O)O)[C@H]1CC[C@H]2[C@@H]3CC[C@@H]4C[C@H](O)CC[C@]4(C)[C@H]3C[C@H](O)[C@]12C` [deoxycholic acid] it is 80.3%; for `CCn1nc(C(=O)O)c(=O)c2cc3c(cc21)OCO3` [cinoxacin] it is 142%.
On to `C[C@H](CCC(=O)O)[C@H]1CC[C@H]2[C@@H]3C(=O)C[C@@H]4CC(=O)CC[C@]4(C)[C@H]3CC(=O)[C@]12C` [dehydrocholate sodium], for which the mCherry was 90.4%.
Still for that read-out and setting: to `CCCc1cc(=O)[nH]c(=S)[nH]1` belongs 114%; to `CC1CC(=O)NN=C1c1cc(-n2ccnc2)cs1` (stereo not given) [motapizone], 136%.
Still for that read-out and setting: the figure for `OC(CNC12CC3CC(CC(C3)C1)C2)COc1ccccc1` (stereo not given) [mantabegron] is 78.2%; for `CC(C)c1nc(N(C)S(C)(=O)=O)nc(-c2ccc(F)cc2)c1/C=C/[C@@H](O)C[C@@H](O)CC(=O)O` it is 108%.
On the same count and under the same terms, the figure for `COC(=O)C1=C(C)NC(C)=C(C(=O)OC)C1c1ccccc1[N+](=O)[O-]` [nifedipine] is 75.7% and 92.5%.
`C=CC1=C(C(=O)O)N2C(=O)[C@@H](NC(=O)/C(=N\OCC(=O)O)c3csc(N)n3)[C@H]2SC1` [Suprax] displayed a mCherry of 109%.
The same measure, in the same setting: to `CCN(CC)CCNC(=O)c1ccccc1O` [saletamide] belongs 126%.
The same measure, in the same setting: the figure for `CCCCCCCN(CC)CCCC(O)c1ccc(NS(C)(=O)=O)cc1` (stereo not given) [ibutilide] is 87.8%; for `CCOc1ccc(/N=N/c2ccc(N)cc2N)cc1` [etoxazene] it is 88.5%; for `c1ccc(Cn2c(N3CCNCC3)nc3ccccc32)cc1` [lerisetron] it is 69.8%.
Same read-out and setting: the figure for `CCCC1O[C@@H]2C[C@H]3[C@@H]4CCC5=CC(=O)C=C[C@]5(C)[C@H]4[C@@H](O)C[C@]3(C)[C@]2(C(=O)CO)O1` (stereo not given in full) [Uceris] is 119%.
On to `COc1cc(NS(=O)(=O)c2ccc(N)cc2)ncn1` [sulfamonomethoxine], for which the mCherry was 112%.
Same read-out and setting: to `CC1(NC2=NS(=O)(=O)c3sc(Cl)cc3N2)CC1` belongs 88.7%; to `Cc1cn[nH]c1` [fomepizole], 96.2% and 113%.
Regarding `C[C@H]1[C@H](OC(=O)CCC(=O)O)O[C@@H]2O[C@@]3(C)CC[C@H]4[C@H](C)CC[C@@H]1[C@@]24OO3` [artesunate], the mCherry is 52.8%.
With `O=C1CC[C@@H](C(=O)Oc2ccc(O)cc2)N1` [pidobenzone], the mCherry came to 77.2%.
Same read-out and setting: the figure for `Cc1cc(C)[n+](/N=C(\[O-])c2ccc(Cl)c(S(N)(=O)=O)c2)c(C)c1` [besulpamide] is 72.8%; for `CNS(=O)(=O)CCc1ccc2[nH]cc(C3CCN(C)CC3)c2c1` [naratriptan] it is 123%; for `C[C@H]1[C@H](O)O[C@@H]2O[C@@]3(C)CC[C@H]4[C@H](C)CC[C@@H]1[C@@]24OO3` it is 29.5%.
On the same count and under the same terms, to `NC(=O)Cc1cccc(C(=O)c2ccccc2)c1N` [nepafenac] belongs 101%; to `O=C(O)c1ccccc1C(=O)Nc1ccc(S(=O)(=O)Nc2nccs2)cc1` [phthalylsulfathiazole], 85.7%.
For the compound `CC(=O)Nc1c(I)cc(I)c(C(=O)O)c1I` [sodium acetrizoate], the mCherry was 70.7%.
Same read-out and setting: to `C#Cc1cccc(Nc2ncnc3cc(OCCOC)c(OCCOC)cc23)c1` [erlotinib] belongs 45.5%.
On the same count and under the same terms, to `CCCCNc1ccc(C(=O)OCCOCCOCCOCCOCCOCCOCCOCCOCCOC)cc1` [benzonatate] belongs 92.1%; to `COC(=O)[C@H](Cc1ccccc1)NC(=O)[C@@H](N)CC(=O)O` [aspartame], 104%.
Still for that read-out and setting: to `NNCCc1ccccc1` [phenelzine] belongs 81.1%; to `N[C@H](C(=O)O)c1ccc(O)cc1` [oxfenicine], 102%.

A further test shares this test system. In words: percent effect, decrease of GFP/mCherry ratio (-1 PRF reporter) relative to controls; higher = stronger frameshift inhibition. The note with it: 10 µM; 24 h; HEK293T.
As for `NC(=O)NO` [hydroxycarbamide], the percent effect is -5.59%.
Same read-out and setting: to `COc1ccc2cc([C@H](C)C(=O)O)ccc2c1` [naproxen] belongs -6.87%; to `O=C(O)c1cn(C2CC2)c2cc(N3CCNCC3)c(F)cc2c1=O` [ciprofloxacin], -1.37% and 0.897%.
Same read-out and setting: to `Nc1nc2c(ncn2COCCO)c(=O)[nH]1` [aciclovir] belongs -4.54%.
Take `C/C(=N\O)C(C)NCC(C)(C)CNC(C)/C(C)=N/O` (stereo not given) [exametazime]: the percent effect is -3.03%.
On the same count and under the same terms, to `CC1=C(C(=O)O)N2C(=O)[C@@H](NC(=O)[C@H](N)c3ccccc3)[C@H]2SC1` belongs -3.12%.
Still for that read-out and setting: to `Cc1cc(C2CCCCC2)n(O)c(=O)c1` [ciclopirox] belongs -4.4% and -6.94%; to `CCCCN(CCCC)C(=O)CN1C[C@H](c2ccc3c(c2)OCO3)[C@@H](C(=O)O)[C@@H]1c1ccc(OC)cc1` [atrasentan], 0.32%; to `O=C(CCCl)NCc1ccccc1` [beclamide], -1.79%.
Still for that read-out and setting: to `CC1=C(/C=C/C(C)=C/C=C/C(C)=C/C(=O)Nc2ccc(O)cc2)C(C)(C)CCC1` [Fenretinide] belongs -19%; to `C[C@H](CCC(=O)O)[C@H]1CC[C@H]2[C@@H]3CC[C@@H]4C[C@H](O)CC[C@]4(C)[C@H]3C[C@H](O)[C@]12C` [deoxycholic acid], 2.73%; to `CCn1nc(C(=O)O)c(=O)c2cc3c(cc21)OCO3` [cinoxacin], -3.79%.
On to `C[C@H](CCC(=O)O)[C@H]1CC[C@H]2[C@@H]3C(=O)C[C@@H]4CC(=O)CC[C@]4(C)[C@H]3CC(=O)[C@]12C` [dehydrocholate sodium], for which the percent effect is -1.57%.
On the same count and under the same terms, to `CCCc1cc(=O)[nH]c(=S)[nH]1` belongs -6.52%; to `CC1CC(=O)NN=C1c1cc(-n2ccnc2)cs1` (stereo not given) [motapizone], -0.503%; to `OC(CNC12CC3CC(CC(C3)C1)C2)COc1ccccc1` (stereo not given) [mantabegron], 2.06%.
Same read-out and setting: to `CC(C)c1nc(N(C)S(C)(=O)=O)nc(-c2ccc(F)cc2)c1/C=C/[C@@H](O)C[C@@H](O)CC(=O)O` belongs -0.936%; to `COC(=O)C1=C(C)NC(C)=C(C(=O)OC)C1c1ccccc1[N+](=O)[O-]` [nifedipine], -2.2% and -5.26%; to `C=CC1=C(C(=O)O)N2C(=O)[C@@H](NC(=O)/C(=N\OCC(=O)O)c3csc(N)n3)[C@H]2SC1` [Suprax], -5.03%.
Still for that read-out and setting: the figure for `CCN(CC)CCNC(=O)c1ccccc1O` [saletamide] is -2.94%; for `CCCCCCCN(CC)CCCC(O)c1ccc(NS(C)(=O)=O)cc1` (stereo not given) [ibutilide] it is -5.09%; for `CCOc1ccc(/N=N/c2ccc(N)cc2N)cc1` [etoxazene] it is 4.56%.
Turning to `c1ccc(Cn2c(N3CCNCC3)nc3ccccc32)cc1` [lerisetron], the percent effect is -10.5%.
On the same count and under the same terms, to `CCCC1O[C@@H]2C[C@H]3[C@@H]4CCC5=CC(=O)C=C[C@]5(C)[C@H]4[C@@H](O)C[C@]3(C)[C@]2(C(=O)CO)O1` (stereo not given in full) [Uceris] belongs -8.91%.
On the same count and under the same terms, to `COc1cc(NS(=O)(=O)c2ccc(N)cc2)ncn1` [sulfamonomethoxine] belongs -2.73%.
The same measure, in the same setting: the figure for `CC1(NC2=NS(=O)(=O)c3sc(Cl)cc3N2)CC1` is -6.67%; for `Cc1cn[nH]c1` [fomepizole] it is -4.49% and -0.653%.
`C[C@H]1[C@H](OC(=O)CCC(=O)O)O[C@@H]2O[C@@]3(C)CC[C@H]4[C@H](C)CC[C@@H]1[C@@]24OO3` [artesunate]: the percent effect is -9.99%.
Regarding `O=C1CC[C@@H](C(=O)Oc2ccc(O)cc2)N1` [pidobenzone], the percent effect was -1.61%.
Still for that read-out and setting: to `Cc1cc(C)[n+](/N=C(\[O-])c2ccc(Cl)c(S(N)(=O)=O)c2)c(C)c1` [besulpamide] belongs -1.88%; to `CNS(=O)(=O)CCc1ccc2[nH]cc(C3CCN(C)CC3)c2c1` [naratriptan], -0.13%.
In the case of `C[C@H]1[C@H](O)O[C@@H]2O[C@@]3(C)CC[C@H]4[C@H](C)CC[C@@H]1[C@@]24OO3`, the percent effect was -0.779%.
Same read-out and setting: the figure for `NC(=O)Cc1cccc(C(=O)c2ccccc2)c1N` [nepafenac] is -2.73%; for `O=C(O)c1ccccc1C(=O)Nc1ccc(S(=O)(=O)Nc2nccs2)cc1` [phthalylsulfathiazole] it is -0.057%.
On the same count and under the same terms, to `CC(=O)Nc1c(I)cc(I)c(C(=O)O)c1I` [sodium acetrizoate] belongs -8.96%; to `C#Cc1cccc(Nc2ncnc3cc(OCCOC)c(OCCOC)cc23)c1` [erlotinib], -8.95%.
Same read-out and setting: to `CCCCNc1ccc(C(=O)OCCOCCOCCOCCOCCOCCOCCOCCOCCOC)cc1` [benzonatate] belongs -1.83%.
Consider `COC(=O)[C@H](Cc1ccccc1)NC(=O)[C@@H](N)CC(=O)O` [aspartame], for which the percent effect is 2.17%.
For the compound `NNCCc1ccccc1` [phenelzine], the percent effect was determined as 6.09%.
Still for that read-out and setting: to `N[C@H](C(=O)O)c1ccc(O)cc1` [oxfenicine] belongs -2.58%.
